Binding data for 18 molecules are collected here from US20180346592A1.

Amino acid sequences for entries named in this document (tags omitted). A change or cut given only in a name is not applied to a line headed by its entry.
UniProt P51654: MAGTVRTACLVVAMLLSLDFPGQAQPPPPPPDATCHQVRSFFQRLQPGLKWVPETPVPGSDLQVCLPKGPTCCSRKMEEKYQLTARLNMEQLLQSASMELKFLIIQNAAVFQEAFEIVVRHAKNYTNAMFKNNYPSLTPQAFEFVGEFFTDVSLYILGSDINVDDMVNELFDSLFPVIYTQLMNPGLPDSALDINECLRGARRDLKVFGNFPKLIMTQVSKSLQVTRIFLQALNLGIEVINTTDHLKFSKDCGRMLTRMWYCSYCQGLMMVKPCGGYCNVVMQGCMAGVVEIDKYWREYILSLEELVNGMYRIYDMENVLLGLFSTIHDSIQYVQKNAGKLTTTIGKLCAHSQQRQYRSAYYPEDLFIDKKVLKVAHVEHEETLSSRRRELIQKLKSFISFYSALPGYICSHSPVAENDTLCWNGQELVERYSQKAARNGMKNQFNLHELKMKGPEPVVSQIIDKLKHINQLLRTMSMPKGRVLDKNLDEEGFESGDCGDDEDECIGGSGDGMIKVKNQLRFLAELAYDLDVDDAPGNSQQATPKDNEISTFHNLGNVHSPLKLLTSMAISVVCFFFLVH

The experiment has as its target human GPC3 (GPC3 antigen coated for panning and ELISA) (human) (UniProt P51654). The experiment is described as follows: ELISA, clone culture supernatant on GPC3-coated plate. Background: In an ELISA, binding on a coated surface is turned into a signal by an enzyme label.

Substitutions are numbered along the chain they refer to. No constants are given. Whether binding was seen depends on the method and setting. Some entries that bind do so weakly or less than the wild type.

B1: clone GX270 (scFv, V domains shown)
VH: QVQLVQSGAEVKKPGASVKVSCKTSGYTFTSSYMHWVRQAPGQGLEWMGIINPNSRGTNYAQKFQGRVTMTSDTSISTAYMELSSLISDDTAVYYCASSSGDYPDYWGQGTLVTVSS
VL: SYELTQPPSVSVSPGQTARIACSGDALPKHYAYWYQQKSGQAPVLVVYEDKKRPAGIPERFSGSSSGTVATLTISGAQVEDEAHYYCYSTDTSGNHRVFGGGTKLTVLG
In the case of B1, the binding entry was “binds”.

B2: clone GN414 (scFv, V domains shown)
VH: QVQLVQSGAEVKKPGASVKVSCKASGYTFSTYGITWVRQAPGQGLEWMGRITPNNGVTDYAQKFQGRVTMTRDTSISTAYMELSSLRSDDSAVYYCAREIGSSSWKLLDPWGQGTMVTVSS
VL: QAVLTQPSSVSVSPGQTASITCTGNSNNVGYEGAAWVQQYQGHPPKLLSDRNHNRPSGISERFSASRSGNTASLTITGLQSEDEADYYCSAWDSSLSEWVSGGGTKLTVLG
On to B2, for which the binding result is given as “binds”.

B3: clone GX116 (scFv, V domains shown)
VH: QVQLVQSGAEVKKPGASVKVSCKASGYTFTSYYMHWVRQAPGQGLEWMGIINPSGGSTSYAQKFQGRVTMTRDTSTSTVYMELSSLRSEDTAVYYCARVMVRGVSTFGYWGQGTLVTVSS
VL: QSVLTQPPSVSAAPGQKVSISCSGSSSNIGKNFLSWYQQLPGTAPHLLIYRNNRRPSGIPDRFSGSKSGTSATLTITGLQTGDEGDYYCGAWDSRLSGVVFGGGTKLTVLG
B3: the binding result is “binds”.

B4: clone GS001 (scFv, V domains shown)
VH: EVQLLESGGGLVQPGGSLRLSCAASGFTFSSYSMSWVRQAPGKGLEWVSGISPSGGNKYYADSVKGRFTISRDNSKNTLYLQMNSLRAEDTAVYYCARALLGCKSAYCYYAMDVWGQGTLVTVSS
VL: QSVLTQPPSASGTPGQRVTISCTGSSSNIGSNAVNWYQQLPGTAPKLLIYADSKRPSGVPDRFSGSKSGTSASLAISGLRSEDEADYYCGSWDSSLSGYVFGGGTKLTVLG
On to B4, for which the binding result was “binds”.

B5: clone GS017 (scFv, V domains shown)
VH: EVQLLESGGGLVQPGGSLRLSCAASGFTFSGYAMSWVRQAPGKGLEWVSGISPGDGSTYYADSVKGRFTISRDNSKNTLYLQMNSLRAEDTAVYYCARVARMCQGWRCSYADGMDVWGQGTLVTVSS
VL: B4 VL with S31N, A33S, N35Y, A51S, K54H, S91T
B5: the binding entry is “binds”.

B6: clone GS007 (scFv, V domains shown)
VH: EVQLLESGGGLVQPGGSLRLSCAASGFTFSNYSMSWVRQAPGKGLEWVSVISHDGRSKYYADSVKGRFAISRDNSKNTLYLQMNSLRAEDTAVYYCAKFRVWKRTNAHSYANAMDVWGQGTLVTVSS
VL: B4 VL with V18A, A33S, N35S, D52N, K54N, S91T, S94A, G98A
For the molecule B6, the binding result is given as “binds”.

B7: clone GS015 (scFv, V domains shown)
VH: EVQLLESGGGLAQPGGSLRLSCAASGFTFSDYSMSWVRQAPGKGLEWVSAISPDGGSKYYADSVKGRFTISRDNSKNTLYLQMNSLRAEDTAVYYCARFRVIKLRAGWYSANGMDVWGQGTLVTVSS
VL: B4 VL with T23S, S31N, A33D, N35S, A51Y, D52N, S91A, S94D, S97N
Take B7: the binding entry is recorded as “binds”.

B8: clone GS014 (scFv, V domains shown)
VH: EVQLLESGGGLVQPGGSLRLSCAASGFTFSNYAMSWVRQAPGKGLEWVSVISPNSGSNTYYADSVKGRFTISRDNSKNTLYLQMNSLRAEDTAVYYCARPRILRRRVDHSYSYAMDVWGQGTLVTVSS
VL: B4 VL with S31N, A33Y, N35S, A51S, D52N, K54H, S91T, S94Y, F101L
On to B8, for which the binding result is listed as “binds”.

B9: clone GS010 (scFv, V domains shown)
VH: EVQLLESGGGLVQPGGSLRLSCAASGFTFSNYSMSWVRQAPGKGLEWVSVISPSSGSIYYADSVKGRFTISRDNSKNTLYLQMNSLRAEDTAVYYCARYRVRQLKHTRSYADAMDVWGQGTLVTVSS
VL: B4 VL with T13A, T23S, N35S, D52N, K54H, A85T, G90A
Regarding B9, the binding result is “binds”.

B10: clone GS002 (scFv, V domains shown)
VH: EVQLLESGGGLVQPGGSLRLSCAASGFTFSGYSMSWVRQAPGKGLEWVSSISPGGSSTYYADSVKGRFTISRDNSKNTLYLQMSSLRAEDTAVYYCARYRVWHMTTGDYYSNAMDVWGQGTLVTVSS
VL: B4 VL with N35S, A51D, S53N, P60L, S91T, S94D
B10: the binding result was “binds”.

B11: clone GS005 (scFv, V domains shown)
VH: EVQLLESGGGLVQPGGSLRLSCAASGFTFSNYAMSWVRQAPGKGLEWVSVISPDSSSKYYADSVKGRFTISRDNSKNTLYLQMNSLRAEDTAVYYCARAAVRRYGPSPYYYYAMDVWGQGTLVTVSS
VL: B4 VL with S31N, A33Y, N35T, K54H, G90A, S91T, S94Y
In the case of B11, the binding result is given as “binds”.

B12: clone GS009 (scFv, V domains shown)
VH: EVQLLESGGGLVQPGGSLRLSCAASGFTFSNYSMSWVRLAPGKGLEWVSVISPSGGNTYYADSVKGRFTISRDNSKNTLYLQMNSLRAEHTAVYYCARYRVKQMLNQRSYSNAMDVWGQGTLVTVSS
VL: B4 VL with S31N, A33Y, N35S, A51D, K54Q, S94A
Consider B12, for which the binding result is “binds”.

B13: clone GS006 (scFv, V domains shown)
VH: EVQLLESGGGLVQPGGSLRLSCAASGFTFSGYSMSWVRQAPGKGLEWVSAISPGGGSKYYADSVRGRFTVSRDNSKNTLYLQMNSLRAEDTAVYYCARYRVQKSAKNVYSSNGMDVWGQGTLVTVSS
VL: B4 VL with S9P, T23S, S31N, A51Y, K54N, S91A, G98A
As to B13, the binding result is listed as “binds”.

B14: clone GS004 (scFv, V domains shown)
VH: EVQLLESGGGLVQPGGSLRLSCAVSGFTFSNYSMSWVRQAPGKGLEWVSAISPGSSNKYYADSVKGRFTISRDNSKNTLYLQMNSLRAEDTAVYYCARYRVWAHSASSSYSNAMDVWGQGTLVTVSS
VL: B4 VL with T23S, S31N, A33D, N35S, A51S, K54Q, S94D, S97N
With B14, the binding entry is “binds”.

B15: clone GS008 (scFv, V domains shown)
VH: EVQLLESGGGLVQPGGSLRLSCAASGFTFSNYAMSWVRQAPGKGLEWVSVISPDNGSTYYADSVKGRFTISRDNSKNTLYLQMNSLRAEDTAVYYCARARVHCRRDQCYSYGMDVWGQGTLVTVSS
VL: B4 VL with A33N, N35T, D52N, K54Q, S91A, S97N
As to B15, the binding result is “binds”.

B16: clone GX107 (scFv, V domains shown)
VH: QMQLVQSGAEVKKPGASVKVSCKASGYTFTSYYMHWVRQAPGQGLEWMGIINPSGGSTSYAQKFQGRVTMTRDTSTSTVYMELSSLRSEDTAVYYCARSHGDYPEDYWGQGTLVTVSS
VL: YELTQPPSVSVSPGQTARIACSGDALPKHYAYWYQQKSGQAPVLVVYEDKKRPAGIPERFSGSSSGTVATLTISGAQVEDEAHYYCYSTDTSGNHRVFGGGTKLTVLG
B16: the binding result is “binds”.

B17: clone GX118 (scFv, V domains shown)
VH: QLQLQESGPGLVKPSETLSLTCTVSGGSISSSSYYWGWIRQPPGKGLEWIGSIYYSGSTYYNPSLKSRVTISVDTSKNQFSLKLSSVTAADTAVYYCARLRSFADNYVWGSYASYYFDYWGRGTLVTVSS
VL: QSVVTQPPSVSAAPGQRVTISCSGSSSNIGNNFVSWHQQLPGTAPKLLIYDNNKRPSGIPDRFSGSKSGTSATLGITGLQTGDEADYYCGTWDNSLGTGVFGGGTKLTVLG
With B17, the binding result is “binds”.

B18: clone GN328 (scFv, V domains shown)
VH: EVQLVESGGGLVQPGGSLRVSCAASGFTFSTAWMDWVRQAPGKGLEWVANINPDGSEKHYVDSVKGRFTVSRDNAKNSVYLHMNNLRAEDTAVYYCSKALDYWGQGTTVTVSS
VL: DIQMTQSPSTLSASVGDRVTITCRASQNINTWLAWYQQKPGKAPEVLIYEASSLESGVPPRFSGSGSGTEFTLTISSLQPDDSATYYCQQYNTYSPTFGQGTKLEIKR
Consider B18, for which the binding result was “binds”.
